# Data taken from article PMC8636486.
# Protein sequences, listed by entry. Tags and fused reporters are not part of them. Lines headed by an entry give the natural chain unless they say otherwise; changes in a name come on top.
# UniProt P08985: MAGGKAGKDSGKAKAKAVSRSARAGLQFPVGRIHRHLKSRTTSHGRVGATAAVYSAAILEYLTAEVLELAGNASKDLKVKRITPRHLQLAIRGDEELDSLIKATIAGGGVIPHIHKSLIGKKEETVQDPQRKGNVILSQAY
# UniProt Q8I8U7: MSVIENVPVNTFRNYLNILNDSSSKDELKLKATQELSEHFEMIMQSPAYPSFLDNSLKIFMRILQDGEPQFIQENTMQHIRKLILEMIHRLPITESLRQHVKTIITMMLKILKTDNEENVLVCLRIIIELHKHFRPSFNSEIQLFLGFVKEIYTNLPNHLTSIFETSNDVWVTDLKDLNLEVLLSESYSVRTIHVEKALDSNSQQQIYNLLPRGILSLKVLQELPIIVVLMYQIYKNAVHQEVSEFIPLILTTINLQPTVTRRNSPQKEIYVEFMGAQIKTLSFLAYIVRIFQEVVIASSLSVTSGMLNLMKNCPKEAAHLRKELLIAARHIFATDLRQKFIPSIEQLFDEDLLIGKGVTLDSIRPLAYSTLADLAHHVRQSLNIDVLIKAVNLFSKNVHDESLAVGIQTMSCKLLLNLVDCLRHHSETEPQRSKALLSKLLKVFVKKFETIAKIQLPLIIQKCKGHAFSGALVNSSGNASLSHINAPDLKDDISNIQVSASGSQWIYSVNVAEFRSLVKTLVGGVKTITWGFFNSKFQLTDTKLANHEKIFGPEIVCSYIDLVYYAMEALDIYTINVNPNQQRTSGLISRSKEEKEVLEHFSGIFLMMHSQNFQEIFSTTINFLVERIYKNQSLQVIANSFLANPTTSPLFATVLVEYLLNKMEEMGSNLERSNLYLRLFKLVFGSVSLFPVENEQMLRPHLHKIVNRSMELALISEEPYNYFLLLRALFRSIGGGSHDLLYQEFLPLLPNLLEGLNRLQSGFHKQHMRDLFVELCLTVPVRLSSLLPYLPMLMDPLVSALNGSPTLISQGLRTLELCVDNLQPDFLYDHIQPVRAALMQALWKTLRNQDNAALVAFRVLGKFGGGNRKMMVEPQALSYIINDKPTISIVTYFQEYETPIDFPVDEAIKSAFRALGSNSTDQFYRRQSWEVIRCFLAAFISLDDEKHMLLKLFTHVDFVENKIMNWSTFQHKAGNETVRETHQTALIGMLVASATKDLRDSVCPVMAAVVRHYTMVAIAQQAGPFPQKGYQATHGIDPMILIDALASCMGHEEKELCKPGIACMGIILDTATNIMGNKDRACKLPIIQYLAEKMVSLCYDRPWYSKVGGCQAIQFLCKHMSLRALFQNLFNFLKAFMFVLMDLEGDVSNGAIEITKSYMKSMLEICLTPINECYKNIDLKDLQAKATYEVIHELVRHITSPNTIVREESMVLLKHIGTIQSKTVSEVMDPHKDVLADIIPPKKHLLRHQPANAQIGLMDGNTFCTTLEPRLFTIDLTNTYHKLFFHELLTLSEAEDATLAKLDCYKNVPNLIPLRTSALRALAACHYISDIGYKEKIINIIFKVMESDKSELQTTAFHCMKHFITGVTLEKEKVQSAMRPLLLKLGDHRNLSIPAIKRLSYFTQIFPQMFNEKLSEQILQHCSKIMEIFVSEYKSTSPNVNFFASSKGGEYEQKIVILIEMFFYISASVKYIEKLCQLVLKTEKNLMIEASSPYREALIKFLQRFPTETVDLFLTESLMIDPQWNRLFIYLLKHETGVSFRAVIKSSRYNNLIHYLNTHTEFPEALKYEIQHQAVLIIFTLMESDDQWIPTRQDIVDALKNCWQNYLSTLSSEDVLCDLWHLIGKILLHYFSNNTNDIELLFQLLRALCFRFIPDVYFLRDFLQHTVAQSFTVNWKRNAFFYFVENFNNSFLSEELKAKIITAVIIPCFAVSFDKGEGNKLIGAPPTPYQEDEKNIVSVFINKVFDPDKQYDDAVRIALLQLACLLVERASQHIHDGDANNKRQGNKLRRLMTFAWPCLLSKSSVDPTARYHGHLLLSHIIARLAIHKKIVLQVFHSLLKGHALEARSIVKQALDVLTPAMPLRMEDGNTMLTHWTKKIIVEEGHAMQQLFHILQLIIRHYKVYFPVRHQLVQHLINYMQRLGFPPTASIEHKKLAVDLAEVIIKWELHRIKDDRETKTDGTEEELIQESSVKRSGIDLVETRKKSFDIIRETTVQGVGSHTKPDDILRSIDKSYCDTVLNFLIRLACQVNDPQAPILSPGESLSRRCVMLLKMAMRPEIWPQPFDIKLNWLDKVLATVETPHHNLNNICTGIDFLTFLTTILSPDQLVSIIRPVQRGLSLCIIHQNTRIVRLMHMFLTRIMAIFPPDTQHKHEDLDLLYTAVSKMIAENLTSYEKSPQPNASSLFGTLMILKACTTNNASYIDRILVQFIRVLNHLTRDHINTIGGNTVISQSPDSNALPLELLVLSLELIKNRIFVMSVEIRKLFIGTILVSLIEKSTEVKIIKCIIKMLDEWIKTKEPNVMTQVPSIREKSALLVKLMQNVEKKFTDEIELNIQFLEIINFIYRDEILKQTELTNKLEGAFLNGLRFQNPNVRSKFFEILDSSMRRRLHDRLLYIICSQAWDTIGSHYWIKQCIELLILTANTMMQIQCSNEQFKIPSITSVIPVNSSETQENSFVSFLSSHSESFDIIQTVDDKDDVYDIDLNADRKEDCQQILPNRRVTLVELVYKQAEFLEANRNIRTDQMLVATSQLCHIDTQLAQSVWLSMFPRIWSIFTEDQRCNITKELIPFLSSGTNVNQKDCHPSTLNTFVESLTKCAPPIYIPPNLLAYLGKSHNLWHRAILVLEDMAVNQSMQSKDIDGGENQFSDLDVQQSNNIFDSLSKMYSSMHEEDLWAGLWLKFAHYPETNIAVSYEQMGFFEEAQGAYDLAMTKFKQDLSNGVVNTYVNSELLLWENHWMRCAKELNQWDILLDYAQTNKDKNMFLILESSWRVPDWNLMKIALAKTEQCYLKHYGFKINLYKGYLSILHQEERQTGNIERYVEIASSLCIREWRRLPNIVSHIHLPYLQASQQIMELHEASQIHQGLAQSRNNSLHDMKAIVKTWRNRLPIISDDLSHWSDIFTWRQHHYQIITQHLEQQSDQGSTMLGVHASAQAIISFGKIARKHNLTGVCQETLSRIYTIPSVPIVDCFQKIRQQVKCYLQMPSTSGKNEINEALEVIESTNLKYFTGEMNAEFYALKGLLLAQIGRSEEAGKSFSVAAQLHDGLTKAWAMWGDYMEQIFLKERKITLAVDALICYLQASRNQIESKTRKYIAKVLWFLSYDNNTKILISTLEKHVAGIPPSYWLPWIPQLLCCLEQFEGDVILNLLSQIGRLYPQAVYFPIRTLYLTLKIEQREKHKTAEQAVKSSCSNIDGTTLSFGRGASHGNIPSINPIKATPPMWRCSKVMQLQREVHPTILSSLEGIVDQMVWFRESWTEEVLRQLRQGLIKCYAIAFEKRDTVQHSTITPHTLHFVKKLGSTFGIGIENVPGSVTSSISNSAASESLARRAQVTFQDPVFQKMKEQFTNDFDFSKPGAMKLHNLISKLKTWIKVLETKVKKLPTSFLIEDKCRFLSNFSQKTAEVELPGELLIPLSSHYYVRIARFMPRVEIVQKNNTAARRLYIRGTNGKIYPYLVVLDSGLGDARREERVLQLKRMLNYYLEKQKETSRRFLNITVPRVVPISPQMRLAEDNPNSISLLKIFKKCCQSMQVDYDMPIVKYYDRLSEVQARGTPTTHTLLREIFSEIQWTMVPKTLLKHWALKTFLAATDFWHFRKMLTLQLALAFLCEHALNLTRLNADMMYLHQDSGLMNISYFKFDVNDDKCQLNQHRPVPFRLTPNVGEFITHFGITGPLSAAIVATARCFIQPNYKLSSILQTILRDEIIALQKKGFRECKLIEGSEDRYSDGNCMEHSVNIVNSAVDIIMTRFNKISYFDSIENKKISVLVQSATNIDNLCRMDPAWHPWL
# UniProt Q960X4: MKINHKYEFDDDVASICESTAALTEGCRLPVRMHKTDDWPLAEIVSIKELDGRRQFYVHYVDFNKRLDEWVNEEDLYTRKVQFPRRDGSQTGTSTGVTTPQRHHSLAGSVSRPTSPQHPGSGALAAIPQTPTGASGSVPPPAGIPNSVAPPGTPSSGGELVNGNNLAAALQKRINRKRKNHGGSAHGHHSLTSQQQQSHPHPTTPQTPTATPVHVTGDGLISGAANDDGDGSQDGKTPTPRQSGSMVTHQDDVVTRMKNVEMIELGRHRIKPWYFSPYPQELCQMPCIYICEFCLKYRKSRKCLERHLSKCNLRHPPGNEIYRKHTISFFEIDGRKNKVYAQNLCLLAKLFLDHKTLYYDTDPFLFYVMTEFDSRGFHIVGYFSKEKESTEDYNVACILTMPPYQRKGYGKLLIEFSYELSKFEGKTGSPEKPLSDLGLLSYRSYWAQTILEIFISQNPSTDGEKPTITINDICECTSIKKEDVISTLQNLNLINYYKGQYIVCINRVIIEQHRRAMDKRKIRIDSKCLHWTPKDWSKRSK
# UniProt Q9VRN3: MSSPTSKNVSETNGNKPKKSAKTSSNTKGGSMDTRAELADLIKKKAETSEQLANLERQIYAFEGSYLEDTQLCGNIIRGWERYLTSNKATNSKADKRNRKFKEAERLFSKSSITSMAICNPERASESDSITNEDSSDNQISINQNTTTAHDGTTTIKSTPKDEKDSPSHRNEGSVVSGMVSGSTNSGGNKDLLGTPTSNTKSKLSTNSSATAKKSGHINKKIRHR
# UniProt A1ZAS6: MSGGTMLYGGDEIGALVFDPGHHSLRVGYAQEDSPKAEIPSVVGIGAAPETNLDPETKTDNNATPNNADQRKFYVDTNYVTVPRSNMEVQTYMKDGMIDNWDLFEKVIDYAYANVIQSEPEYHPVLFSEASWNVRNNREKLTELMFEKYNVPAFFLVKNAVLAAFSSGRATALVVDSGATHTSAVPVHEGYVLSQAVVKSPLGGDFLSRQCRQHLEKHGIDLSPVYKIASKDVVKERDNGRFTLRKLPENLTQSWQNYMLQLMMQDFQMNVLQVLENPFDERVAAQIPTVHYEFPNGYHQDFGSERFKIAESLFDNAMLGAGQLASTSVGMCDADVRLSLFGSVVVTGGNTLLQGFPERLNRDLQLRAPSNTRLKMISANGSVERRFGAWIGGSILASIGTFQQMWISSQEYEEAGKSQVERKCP
# UniProt Q9V3K3: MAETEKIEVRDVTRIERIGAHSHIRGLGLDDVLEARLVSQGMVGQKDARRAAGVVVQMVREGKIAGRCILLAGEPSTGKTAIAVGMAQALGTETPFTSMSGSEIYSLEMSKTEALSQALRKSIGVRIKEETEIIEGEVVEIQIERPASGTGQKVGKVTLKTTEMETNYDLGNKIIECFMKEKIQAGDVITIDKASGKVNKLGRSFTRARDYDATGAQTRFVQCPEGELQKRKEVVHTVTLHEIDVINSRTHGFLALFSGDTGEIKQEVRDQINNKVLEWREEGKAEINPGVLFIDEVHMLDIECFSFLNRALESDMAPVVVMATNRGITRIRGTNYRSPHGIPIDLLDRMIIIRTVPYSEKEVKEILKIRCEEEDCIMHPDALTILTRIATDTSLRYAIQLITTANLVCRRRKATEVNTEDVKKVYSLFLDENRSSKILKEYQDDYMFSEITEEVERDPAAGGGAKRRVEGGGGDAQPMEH
# UniProt Q9VM63: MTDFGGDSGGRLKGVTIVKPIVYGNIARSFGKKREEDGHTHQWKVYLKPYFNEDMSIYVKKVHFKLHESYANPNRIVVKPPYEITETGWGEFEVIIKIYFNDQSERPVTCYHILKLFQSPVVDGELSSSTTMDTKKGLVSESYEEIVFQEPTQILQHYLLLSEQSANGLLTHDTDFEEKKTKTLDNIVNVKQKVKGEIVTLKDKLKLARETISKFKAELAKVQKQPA
# These are yes or no findings as the source states them, for the method shown. Binding seen in cells or lysates may run through a third protein. Here binding means that the protein was enriched with, or labelled near, the bait; the list need not be complete.
# Molecular target: H2A.Z-FlagHA (histone variant His2Av) (Drosophila) (UniProt P08985)
# Experiment: affinity purification with mass spectrometry; anti-FLAG M2 affinity gel with 1 mg nuclear soluble extract of Drosophila ovaries expressing H2A.Z-FlagHA in the germline; IP-buffer (20 mM Tris-HCl pH 7.5, 10% glycerol, 5 mM MgCl2, 150 mM KCl, 0.05% NP40, 0.1% Tween20, 1 mM DTT), 4 h at 4 °C; eluted with Flag peptide; enrichment over control, 3 biological replicates
row,Molecule,binding
1,Nipped-A (from UniProt Q8I8U7 1-3790),binds
2,Tip60 (from UniProt Q960X4 1-541),binds
3,Eaf6 (from UniProt Q9VRN3 1-225),binds
4,Bap55 (from UniProt A1ZAS6),binds
5,"YL-1 (protein, UniProt Q9VKM6 1-351) MAASRSRRNNAGNKIAHLLNEEEEDDFYKTSYGGFQEDEEDKEYEQKDEEEDVVDSDFSIDENDEPVSDQEEAPEKKRKRGVVNTKAYKETKPAVKKETKATPALHKKRPGGGVTKRRPRPRFTVLDSGRKSIRTSTAIKTQATKIRLKELDDARKRKKKKVRVEDYMPTQEELLEEAKITEEENTKSLEKFQKMELEKKKSRPTKRTFSGPTIRYHSLTMPAMRKPTRGANPAVDSKDLAGKCERTFVTIENDFNDKVFQSLFRHKAPPKASNGICPITRLPARYFDPITQQPYYSIQAFKILREAYYMQLEQQGGGSEQPELAKWLEWRKLVKENRLKASAAASKNGDN",binds
6,"Ing3 (protein, UniProt Q9VWS0 1-686) MLYLEDYLEMIEHLPQELRDRFTEMRELDLAVQNNMDSLDKKAHMFFKQCKRDELQHESMDTEFHSLRGEYFKVMEDADEKVAIATQIHELVERYLRRLDSELFKFKCELEADNNGITEILERRSLELDGNSTAATALLLSMNQKENRYYGASSANTMVNSSTGHATGAATGSSGIALVSGAAGTGGALSSISTAQLGSSQRHRKLEKRRETICTVPVQEKRANLNHSLPVVGSGSTTAAAASSSSATTAAAAASLASATTAQTHVSNHIGSIAATHLTLPVAMGVAGGSSSLASSSLATGTGSLVRQLPTNLTHTVLSTSGGATAAAAAGGNSTSVVAAGTAHGHAHVSGHSAAGATVTYNLQQLGGGAAASSAIAAAASQAIVATQQMQQGRRTASLKASYEAIHGTAGTTTDFWTQAGQGGLQQSTAGSVTVAAGTALATGAAGGSSTGSHHSHHSQSHHGGHGHGHGHGHGHGHGHGHHSSSGHGGGHSSHHQEKKQKKKLTTALTLPTVQPTAGSSSGNSIGSSSSISLESVNKLTTSAALAAASATTTYMSVGGQALLAMTPGGGGGGNLAESSAEGVPAGMIAMNLPTTTVTPGSSLTIGENGLVVEQTNEGEWSYDPNEPRYCTCNQVSYGDMVACDNDACPYEWFHYPCVGITQPPKGKWYCPKCTASMRRRGNRKN",binds

# The remaining lines, values ahead:
row,binding,Molecule
1,binds,rept (from UniProt Q9V3K3 1-481)
2,binds,Domino isoform A (from UniProt Q9NDJ2 1-3198)
3,binds,Gas41 (from UniProt Q9VM63)
4,binds,"DMAP-1 (protein, UniProt Q7K3D8 1-433) MSADVRDILDMERANTPEVTRDSFLATKKRNFERTKTASRRPEGMHREVFALLYTDKKDAPPLLPTDTALGIGAGYKETKARLGMKKVRKWEWAPFSNPARNDSAVFHHWKRVTDNSTDYPFAKFNKQLEVPSYTMTEYNAHLRNNINNWSKVQTDHLFDLARRFDLRFIVMADRWNRQQHGTKTVEELKERYYEVVALLAKAKNQTSEKKVFVYDVEHERRRKEQLEKLFKRTTQQVEEENMLINEMKKIEARKKERERKTQDLQKLISQADQQNEHASNTPSTRKYEKKLHKKKVHQQPRPSRVDSVVNAIEIGSSGIKFADLRGSGVSLRSQRMKLPANIGQRKVKALEQAIQEFKVDPAPPPTEDICTSFNELRSDMVLLCELRTALSTCVYEMESLKHQYEAACPGKTLNIPPSLVPIKTEALDNSTN"
5,binds,"Brd8 (protein, UniProt Q9VAM5 1-872) MSAGVQERLQLSRMPLDTWSKREQLILASAVSCSGDQNWITVSRTLKTICGNGSSNRPADWFSQKNCAMQYGNLLESVEATKRKKRSSESSAGVSSPATVETPTELLLRRLTEERQAEIKAQMRQDQETYRRIQREIESLQSDAVTEQELQDMWLEIEKEQEARRIEEMKLENRMREREQRKKDLASNWRNSSLAVKRSNQAADTTSVDMDVEDINTSGNGKQQTGPSPLLTSLLKSPTGNAPATPTPGGAAPAAGGTGSVARATAPTITSLLTSGPSSAVANQPVITMKSPTDAAFMSRPITGPPASEASTTPTLERSPSQAAPTLSMLLEKNMAAAKANESGSLVKPEGSGNQEQGVDEATSSAAGTADSDEADPNEAQLLEVFKNIDQIIDDIDIDMASVIDDEILKNVDDVVASPSNDKAEVIDFEDKLDALKREQSKSSPASDKPKSVELVIGSSDDSNDNIPLAAVASQESKDRGQSGGESTRGTEDAESEPLTSEVAVEEIGETITIISTSSEDTAGSPPTKMEEDGATDSLPKKEDAAEDKSEQESSSQGQNKAGGSTDEPELIDHQATREAQSKSGKDTAGKPVTMQEKTTTQSAPVPVDLHDTDEESSSLTDSSKHDDHPRSAKAKPPALKLALDDSKSELELSGTPQPPSAPARTPLLRKLPHRDRSESPMVDDDATTASDHSTARSTRRRCSSTPVIDSIPNSPASSEHTDDRRETRAASKKLFLSIYAMLLDSKHAAPFKRPFHDEHAQRHADLCLRPMDFPTIKRNIDSGFIRSLSELHRDVLLMAHNVLVAYKPHTAQHKTARLFVQDCQAIKEFSQLPDVQAGITATPVSNTGSLRADKSSGSKARSGSRKSQRHH"
6,binds,"MRG15 (protein, UniProt Q9Y0I1 1-424) MGEVKPAKVENYSTGTDANTLFVDGERVLCFHGPLIYEAKVLKTKPDATPVEYYIHYAGWSKNWDEWVPENRVLKYNDDNVKRRQELARQCGERSKKDNKKGSAKAKKMEQMRNESRASTPSKDSNTSQSTASSTPTTSAGPGSKSEAGSTGTTTTNSTANSTTSRAHRKSTQSTPSTARPGTPSDKKEDPAAAETTEEEGPVAPKKKRMSEQRPSLTGSDVAEKPLPPTTTPSTPTTEPAPCVESEEAYAAKVEVKIKIPDELKHYLTDDWYAVVREHKLLELPAKVTVQQISEQYLAHKKSVKSTSASKEVAINDVLDGIVEYFNVMLGSQLLYKFERTQYADVMQKHPDTPLSELYGSFHLLRLFVRLGSMLSYSALDQQSMQNLLTHVQDFLKFLVKNSSIFFSMSNFINVDPEYVRNAQ"
7,binds,"Arp6 (protein, UniProt P45890 1-398) MANAVVVLDNGAHTAKVGLANQDEPHVVPNCIMKAKSERRRAFVGNQIDECRDTSALYYILAFQRGYLLNWHTQKTVWDYIFSKDGIGCSLENRNIVITEPQMNFQSIQEATLEILFEEYKVDGVYKTTAADLAAFNYVADSEERTTMESLNCIIIDVGYSFTHVVPFVLGRRVLQGIRRIDMGGKALTNQLKELISYRHLNVMDESHVVNQIKEDVCFVAEDFKQAMQVHYSEEKRREVTVDYVLPDFTTVKRGYVRVPGKPREDEEQQQMVSLCNERFTVPELLFNPSDIGVQQVGIPEAVADCLKACPWEAHRELLLNILIVGGSAQFPGFLPRLKRDLRALVPDDLEVSLICPEDPVRYAWYGGKEVATSPNFEEFVYTQDDYEEYGFQGINQR"
